According to patent US12533444B2, “Mitigation of peri-implantitis by design and stability of bifunctional peptides with antimicrobial properties” (priority 2019, dated 2026):

Experiment: Mechanical durability assay (electric toothbrush brushing of functionalized discs)
Conditions: one minute

Sequence	bifunctional peptide coating retained after brushing [%]
RPRENRGRERGLGSGGGGKIIKLKASLKLL [TiBP-GL13K, comparative bifunctional peptide: TiBP, GSGGG spacer, GL13K antimicrobial domain]	27
RPRENRGRERGLGSGGGKWKLWKKIEKWGQGIGAVLKWLTTW [TiBP-AMPA]	75
